The whole screen tested about 400,000 compounds, of which about 5,500 (1.4%) were called active. The inconclusive results got no clear call from the source; some entries with a clear call stand among them for comparison. Calls follow the shape of the dose curve; as a rule, active = well fitted cell-killing curve with a large enough effect; inconclusive = small, poorly fitted or top-dose-only effect, or effect the other way; inactive = flat fitted curve, though single readings scatter. Potencies of inconclusive entries are doubtful fits and often do not repeat.
assay: qHTS assay for MDR1-selective chemotherapeutics: Primary screen using the parental adenocarcinoma cell KB-3-1; conditions: KB-3-1 viability, CellTiter-Glo ATP luminescence, 72 h; activity change, negative = cytotoxic: at 46.1 µM (top of the series); also: nearly all actives have a fitted effect of over 60% in size
How it was run: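 Parental KB-3-1 adenocarcinoma cells in phenol-red-free DMEM with 10% FBS were pin-treated with compounds at several concentrations, incubated 72 h at 37 °C, and viability read by CellTiter-Glo luminescence; concentration-effect curves were fitted after normalization.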
% is scaled to controls: 0 for no effect and ±100 for the full control effect; potency is read from the fitted curve at half-maximal effect.

| SMILES | activity change, negative = cytotoxic | Potency |
| --- | --- | --- |
| COc1ccc(CCNC(=O)CCn2c(=O)c3ccccc3n(CC(=O)Nc3ccc(C)cc3C)c2=O)cc1OC | inactive: 3.97% | – |
| CCc1c(C)sc2c1CCN(C(=O)Nc1ccc(F)c(Cl)c1)C2c1ccc(F)cc1 (stereo not given) | – | inconclusive: 29.1 µM [cytotoxic, single point] |
| CCN(CC)c1ccc(/C=N/NC(=O)c2ccc3nc[nH]c3c2)c(O)c1 | – | inconclusive: 16.4 µM [cytotoxic, single point] |
| c1ccc(-c2ccc(-c3ccncn3)cc2)cc1 | – | inconclusive: 20.6 µM [cytotoxic, single point] |
| Cn1nnnc1SCCCNCc1cccc(OCc2ccccc2Cl)c1 | – | inconclusive: 23.1 µM [cytotoxic, partial curve, poor fit] |
| Cc1ccc(S(=O)(=O)N2CCN(CC(O)COc3ccccc3)CC2)cc1 (stereo not given) | inactive: -24.9% | – |
| O=C(Nc1nnc(C23CC4CC(CC(C4)C2)C3)s1)c1ccco1 | inactive: 0.677% | – |
| O=C(Nc1cccc(S(=O)(=O)N2CCCC2)c1)[C@@H]1O[C@H](CO)[C@@H](O)[C@H]1O | inactive: 0% | – |
| Fc1ccc(F)c(C2=NNC(=Nc3ccccc3F)SC2)c1 | – | inconclusive: 20.6 µM [cytotoxic, single point] |
| Cc1cc(C(F)(F)F)nc(CCNC(=O)C2CCC(=O)N(Cc3cccc(F)c3)C2)n1 (stereo not given) | inactive: 21.1% | – |
| NC1=NC(=O)C(Cc2cccc(Cl)c2Cl)S1 (stereo not given) | – | inconclusive: 18.4 µM [cytotoxic, single point] |
| Cn1c(=O)c2sccc2n(Cc2cccc(Br)c2)c1=O | – | inconclusive: 18.4 µM [cytotoxic, single point] |
| O=C(Cc1ccc([N+](=O)[O-])cc1)N/N=C/c1ccc([N+](=O)[O-])o1 | – | inconclusive: 20.6 µM [cytotoxic, partial curve, poor fit] |
| O=C(Nc1nc(-c2ccccn2)cs1)c1ccc(Cl)s1 | – | inconclusive: 2.59 µM [cytotoxic, full curve] |
| C[C@]12C=CC(=O)C=C1CC[C@@H]1[C@@H]2[C@@H](O)C[C@@]2(C)[C@H]1CC[C@]2(O)C(=O)COC(=O)CCC(=O)NCCc1ccc(O)cc1 | inactive: -3.9% | – |
| O=C(Cc1ccc(NC(=O)C2CCCN(C(=O)CCc3ccccc3)C2)cc1)Nc1cccc(C(=O)N2CCCCC2)c1 (stereo not given) | – | inconclusive: 18.4 µM [cytotoxic, single point] |
| COC1CCN(Cc2c(C(=O)N3CCN(C4CCCCC4)CC3)nc3ccccn23)CC1 | inactive: -12% | – |
| O=C(Nc1nc2ccc(C(=O)N3CCCCC3)cc2s1)C1CCCCC1 | – | active: 5.8 µM |
| CCc1noc2c1/C(=N\O)CC(c1ccccc1)C2 (stereo not given) | – | inconclusive: 8.2 µM [cytotoxic, partial curve] |
| OCCNc1c2ccccc2nc2ccccc12 | – | inconclusive: 29.1 µM [cytotoxic, single point] |
| CCOC(=O)c1ccc(NS(=O)(=O)c2ccc3[nH]c4c(c3c2)CCCCC4)cc1 | – | inconclusive: 23.1 µM [cytotoxic, partial curve, poor fit] |
| O=C(c1cc(-c2ccc(F)cc2)no1)N1CCN(Cc2ccc3c(c2)OCO3)CC1 | inactive: -21.7% | – |
| COc1ccc(C2CC(c3c(O)cc(C)oc3=O)=NCCS2)c(OC)c1 (stereo not given) | – | active: 0.291 µM |
| Cc1ccc(N(C(=O)CCl)C(C(=O)NC2CCCCC2)c2cccnc2)cc1C (stereo not given) | – | active: 3.66 µM |

| SMILES | activity change, negative = cytotoxic | Potency |
| --- | --- | --- |
| CCCc1cc(NCCCCO)n2c(nc3ccccc32)c1C#N | inactive: 14.3% | – |
| CCc1nn(CC(=O)N2CCN(c3cccc(C(F)(F)F)c3)CC2)c(=O)c2cccn12 | inactive: 2.1% | – |
| CSc1cccc(NC(=O)COC(=O)C2CCN(S(=O)(=O)c3ccccc3)CC2)c1 | – | inconclusive: 0.0046 µM [cytotoxic, full curve, poor fit] |
| CC(=O)c1cc(CN2CCN(CC=C(C)C)C(CCO)C2)cs1 (stereo not given) | – | inconclusive: 0.0065 µM [rising, full curve] |
| Cn1ncc(N=Cc2ccccc2)c1C(=O)Nc1cccc(Cl)c1 | – | inconclusive: 25.9 µM [cytotoxic, single point] |
| CCn1cc2nc(SCc3cc(C)ccc3C)n(Cc3ccc(OC)cc3)c(=O)c2n1 | – | inconclusive: 20.6 µM [cytotoxic, single point] |
| COc1ccc(N2CCN(C(=O)c3cccc(N4C(=O)C5C6C=CC(C6)C5C4=O)c3)CC2)cc1 (stereo not given) | inactive: 0.231% | – |
| CCOC(=O)CCc1ccc(NC(=O)/C=C/c2ccc([N+](=O)[O-])o2)cc1 | – | inconclusive: 29.1 µM [cytotoxic, single point] |
| CSc1nc(Oc2ccc3ccccc3c2)c2sccc2n1 | – | active: 5.17 µM |
| COc1ccc(CCN2C(=O)C3C4C=CC(C3C2=O)C2C(=O)N(CCc3ccc(OC)c(OC)c3)C(=O)C42)cc1OC (stereo not given) | – | inconclusive: 18.4 µM [cytotoxic, single point] |
| O=[N+]([O-])c1ccc(O)c(/C=N/Nc2nc3ccccc3[nH]2)c1 | – | inconclusive: 20.6 µM [cytotoxic, single point] |
| CCCc1cc(C(=O)Nc2cccc(Cl)c2C)no1 | inactive: 9.63% | – |
| CC(=O)Nc1ccc(NC(=O)CSc2nc3ccccc3o2)cc1 | inactive: 8.02% | – |
| CCCNS(=O)(=O)c1ccc(OCC(=O)N2CCC(C(=O)OCC)CC2)cc1 | inactive: 1.55% | – |
| CCn1c(/C=C/c2cccc([N+](=O)[O-])c2)nc2ccccc2c1=O | – | inconclusive: 25.9 µM [cytotoxic, single point] |
| CC(CCc1ccccc1)NC(=O)c1cc2sccc2n1C (stereo not given) | inactive: 5.23% | – |
| O=C(NCc1ccccc1)c1ccc(NC(=O)C2CCC2)cc1 | inactive: 11.5% | – |
| O=C(CSc1nc2ccncc2[nH]1)Nc1ccccc1C(F)(F)F | – | inconclusive: 29.1 µM [cytotoxic, single point] |
| CCO[C@H]1OC(C(=O)Nc2ccccc2)=C[C@@H](c2ccc(C(F)(F)F)cc2)[C@@H]1CCCO | – | inconclusive: 18.4 µM [cytotoxic, single point] |
| CN(C)Cc1nc2c(c(=O)[nH]1)C(C)(C)Cc1ccccc1-2 | – | inconclusive: 14.6 µM [rising, partial curve, poor fit] |
| O=C1NC(=O)C(=Cc2ccccc2[N+](=O)[O-])S1 | – | inconclusive: 20.6 µM [cytotoxic, single point] |
| Cc1ccccc1NC(=O)COc1coc(CN2CCN(Cc3ccccc3)CC2)cc1=O | inactive: -8.66% | – |
| COc1ccc(C(C)(O)c2nc(-c3ccc(F)c(Cl)c3)cs2)cc1 (stereo not given) | inactive: 0% | – |
| Cc1ccc(-c2nn(-c3ccccc3)cc2C=C2C(=O)CC(C)(C)CC2=O)cc1 | – | inconclusive: 29.1 µM [cytotoxic, single point] |

| SMILES | activity change, negative = cytotoxic | Potency |
| --- | --- | --- |
| Cc1ccc(Nc2nnc(SCC(=O)Nc3cc(C(=O)O)ccc3C)s2)c(C)c1 | inactive: 0% | – |
| COc1ccccc1NC(=O)c1c(N=Cc2c(O)ccc3ccccc23)cnn1C | – | active: 20.6 µM |
| COc1ccc(Br)cc1CN(C)CC(O)COc1ccc(Br)cc1 (stereo not given) | inactive: -11.8% | – |
| COc1ccccc1N(Cc1ccccc1)S(=O)(=O)c1cccc(C(=O)Nc2ccc(C)cn2)c1 | – | inconclusive: 29.1 µM [cytotoxic, single point] |
| Cc1ccc2cc(COC(=O)C3CCCO3)c(=O)[nH]c2c1 (stereo not given) | – | inconclusive: 16.4 µM [cytotoxic, single point] |
| C(=NN=C1c2ccccc2-c2ccccc21)c1c[nH]c2ccccc12 | – | inconclusive: 29.1 µM [cytotoxic, single point] |
| COc1ccc(CNC(=O)c2cc(S(=O)(=O)N3CCOCC3)cn2C)cc1 | – | inconclusive: 2.06 µM [rising, partial curve, poor fit] |
| COc1ccc(S(=O)(=O)NN(C)c2nc(C(F)(F)F)nc3ccccc23)cc1 | – | inconclusive: 29.1 µM [cytotoxic, single point] |
| O=C(Cc1ccccc1)NCC(=O)N/N=C/c1ccc([N+](=O)[O-])s1 | – | inconclusive: 29.1 µM [cytotoxic, single point] |
| Cc1ccc(NC(=O)c2cc(S(=O)(=O)Nc3ccc(C)cc3)cs2)cc1 | – | inconclusive: 29.1 µM [cytotoxic, single point] |
| Cn1ncc([N+](=O)[O-])c1C(=O)n1nnc2ccccc21 | – | inconclusive: 5.8 µM [cytotoxic, full curve, poor fit] |
| O=C(NC1CCN(Cc2ccccc2)CC1)C12CC3CC(CC(C3)C1)C2 | inactive: -13.5% | – |
| Cc1ccc(OCC(=O)Nc2cccc(S(=O)(=O)N3CCCCCC3)c2)c([N+](=O)[O-])n1 | inactive: -19.9% | – |
| CCOc1ccc(NS(=O)(=O)c2ccc(C(=O)N(C)CC(=O)Nc3ccccc3Br)cc2)cc1 | – | inconclusive: 29.1 µM [cytotoxic, single point] |
| Cc1nc2c(c(=O)n1CCC1=CCCCC1)c1nc3ccccc3nc1n2/N=C/c1ccco1 | inactive: -11.5% | – |
| CCCCCCCCCn1ccc(=N)cc1 | – | active: 0.517 µM |
| COC(=O)COc1ccc(/C=N/NC(=O)c2ccc(N(Cc3ccccc3)S(C)(=O)=O)cc2)cc1 | – | inconclusive: 29.1 µM [cytotoxic, single point] |
| C[C@H](CO)N1C[C@H](C)[C@@H](CN(C)S(=O)(=O)c2ccc(Cl)cc2)OCc2cnnn2CCCC1=O | – | inconclusive: 29.1 µM [rising, single point] |
| CCOc1ccc(NC(=O)c2cc(C3CC3)nc3c2cnn3C(C)C)cc1OC | inactive: 1.54% | – |
| CCc1ccc2nc(N3C(=O)C(O)=C(C(=O)c4ccco4)C3c3cccs3)sc2c1 (stereo not given) | – | inconclusive: 29.1 µM [cytotoxic, single point] |
| CC1(C(=O)NCc2cccs2)Cc2c(-c3ccc(C(N)=O)cc3)ccnc2O1 (stereo not given) | – | active: 14.6 µM |
| CCCCc1c(-c2cccc(Br)c2)ncn1CCc1ccccc1OC | – | inconclusive: 29.1 µM [cytotoxic, single point] |

14 entries from above, set out differently:
SMILES,"activity change, negative = cytotoxic",Potency
Cc1ccc(Nc2nnc(SCC(=O)Nc3cc(C(=O)O)ccc3C)s2)c(C)c1,inactive: 0%,–
COc1ccccc1NC(=O)c1c(N=Cc2c(O)ccc3ccccc23)cnn1C,–,active: 20.6 µM
COc1ccc(Br)cc1CN(C)CC(O)COc1ccc(Br)cc1 (stereo not given),inactive: -11.8%,–
COc1ccccc1N(Cc1ccccc1)S(=O)(=O)c1cccc(C(=O)Nc2ccc(C)cn2)c1,–,"inconclusive: 29.1 µM [cytotoxic, single point]"
Cc1ccc2cc(COC(=O)C3CCCO3)c(=O)[nH]c2c1 (stereo not given),–,"inconclusive: 16.4 µM [cytotoxic, single point]"
C(=NN=C1c2ccccc2-c2ccccc21)c1c[nH]c2ccccc12,–,"inconclusive: 29.1 µM [cytotoxic, single point]"
COc1ccc(CNC(=O)c2cc(S(=O)(=O)N3CCOCC3)cn2C)cc1,–,"inconclusive: 2.06 µM [rising, partial curve, poor fit]"
COc1ccc(S(=O)(=O)NN(C)c2nc(C(F)(F)F)nc3ccccc23)cc1,–,"inconclusive: 29.1 µM [cytotoxic, single point]"
O=C(Cc1ccccc1)NCC(=O)N/N=C/c1ccc([N+](=O)[O-])s1,–,"inconclusive: 29.1 µM [cytotoxic, single point]"
Cc1ccc(NC(=O)c2cc(S(=O)(=O)Nc3ccc(C)cc3)cs2)cc1,–,"inconclusive: 29.1 µM [cytotoxic, single point]"
Cn1ncc([N+](=O)[O-])c1C(=O)n1nnc2ccccc21,–,"inconclusive: 5.8 µM [cytotoxic, full curve, poor fit]"
O=C(NC1CCN(Cc2ccccc2)CC1)C12CC3CC(CC(C3)C1)C2,inactive: -13.5%,–
Cc1ccc(OCC(=O)Nc2cccc(S(=O)(=O)N3CCCCCC3)c2)c([N+](=O)[O-])n1,inactive: -19.9%,–
CCOc1ccc(NS(=O)(=O)c2ccc(C(=O)N(C)CC(=O)Nc3ccccc3Br)cc2)cc1,–,"inconclusive: 29.1 µM [cytotoxic, single point]"
